Binding data for one molecule are collected here from patent publication CN114075281A.

In this test the target is T1, 人Inhibin-α蛋白 (in human tissue sections) (human) (UniProt P05111).
T1 sequence (looked up): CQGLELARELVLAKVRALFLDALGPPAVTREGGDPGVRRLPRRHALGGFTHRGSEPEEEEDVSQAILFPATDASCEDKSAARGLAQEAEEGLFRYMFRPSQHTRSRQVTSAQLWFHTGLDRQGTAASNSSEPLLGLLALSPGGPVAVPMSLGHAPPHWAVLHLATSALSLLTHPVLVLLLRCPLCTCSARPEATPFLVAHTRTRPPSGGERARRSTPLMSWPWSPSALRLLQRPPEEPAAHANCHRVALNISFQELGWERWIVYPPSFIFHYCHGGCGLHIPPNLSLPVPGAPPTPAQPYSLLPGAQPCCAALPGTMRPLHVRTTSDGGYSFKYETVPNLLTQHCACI
In words: immunohistochemistry on paraffin sections of human tumour tissue.

Results are given in words; binding and its absence hold for the method and conditions named. Some entries that bind do so weakly or less than the wild type.

B1: 抗Inhibin-α蛋白单克隆抗体(15E11D5E11) (antibody, V domains shown)
VH: EVQLQQSGPELVKPGTSVKISCKTAGYTFTAYNIHWVKQSHGKSLEWIGSINPNFGDTRYNQMFEGKATLTVDKSSSTAYMELRSLTSEDAVVYYCARSSGAWFPYWGQGTLVTVSA
VL: DVLMTQIPLSLPVSLGDQASISCRASQSIVHSSGNTYLEWYLQKPGQSPKLLIYKVSNRFSGVPDRFSGSGSGTDFTLKISRVEAEDLGVYYCFQGSHVPPTFGGGTNLEIK
In the case of B1, the binding entry is reported as “binds”.
